The results are deposited in PubChem (AID912; NCATS, 2007).

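Uptake of anthrax lethal toxin into cultured cells, read by FRET (460/530 nm ratio) and reported from the 460 nm channel; the cell line is not named here.
Each compound was tested as a concentration series from about 0.0005 to 40 µM.
The number is the fitted AC50 of the 460 nm signal alone; lower values mean a more potent effect. A falling signal goes with compounds filed as inhibitors or cytotoxic, a rising one with activators or fluorescent compounds (inferred from the filed classes).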

Values are in µM.
Common to all entries: measured here: 460 nm channel.
This is a side read-out of the assay, for part of the compounds, not drawn at random.
Potencies fitted to partial, single-point or poorly fitting curves are rough.
The first word of each remark tells which way the curve ran; it can be opposite to the aim of the assay.

* O=C(Nc1scc(-c2ccc(F)cc2)c1C(=O)O)c1ccco1 : AC50 5.012 µM (rising, single point)
* COc1ccc(N(CC(=O)Nc2ccc3c(c2)OCO3)S(=O)(=O)c2ccccc2)c(OC)c1 : AC50 10 µM (falling, partial curve)
* CCOc1ccc2nc(NCCCNS(=O)(=O)c3ccccc3)c(C#N)cc2c1 : AC50 10 µM (rising, partial curve)
* C[C@@]12CC[C@H](O)C[C@@H]1CC[C@@H]1[C@@H]2CC[C@@]2(C)[C@@H](C3=CC(=O)OC3)[C@H](O)C[C@]12O : AC50 2.512 µM (falling, partial curve)
* CN(C)c1ccc(C(=C2C=CC(=[N+](C)C)C=C2)c2ccccc2)cc1 : AC50 3.162 µM (falling, partial curve)
* COCCn1c(=O)c(CCc2ccccc2)nc2cnc(N3CCOCC3)nc21 : AC50 3.981 µM (rising, single point)
* O=C(c1[nH]o[n+](=O)c1C(=O)c1csc2ccccc12)c1csc2ccccc12 : AC50 1 µM (falling, single point)
* COC(=O)[C@@]1(Cc2ccc(OC)cc2)[C@H]2c3cc(C(=O)N4CCCC4)n(Cc4ccc(OC(F)(F)F)cc4)c3C[C@H]2CN1C(=O)c1ccccc1 : AC50 31.62 µM (falling, single point)
* CCc1ccc(CCC(=O)Nc2sc3c(c2C#N)CCCC3)o1 : AC50 0.01 µM (falling, full curve, poor fit)
* COC(=O)C1=C(C)NC(C)=C(C(=O)OC)C1c1ccccc1[N+](=O)[O-] : AC50 31.62 µM (falling, single point)
* N[C@@H](CC(=O)O)C(=O)O : AC50 1.259 µM (falling, full curve)
* O=S(=O)(O)c1ccc(N=Nc2ccccc2)cc1 : AC50 0.7943 µM (falling, single point)
* COc1cc(C(=O)Nc2ccc(-c3nc4cc(C)ccc4o3)c(O)c2)cc(OC)c1OC : AC50 3.162 µM (falling, full curve, poor fit)
* COc1ccc(O)c(-c2cc(-c3cccc(Br)c3)n[nH]2)c1 : AC50 12.59 µM (falling, partial curve)
* C=CCOC(=O)C(C(C)=O)C(NC(=O)OC)c1cccs1 (stereo unspecified) : AC50 0.0631 µM (rising, full curve, poor fit)
* COc1ccc(C2=CSC3=NCCN23)cc1F : AC50 12.59 µM (falling, partial curve)
* CCc1nc2c(sc3nc4c(cc32)COC(C)(C)C4)c(=O)n1Cc1ccco1 : AC50 19.95 µM (falling, single point)
* COc1cc(OC)c(-c2nn3c(-c4ccncc4)nnc3s2)cc1OC : AC50 5.012 µM (rising, single point)
* CCN1CCN(c2cc(C)c3cc(NC(=O)c4ccc5c(c4)OCO5)ccc3n2)CC1 : AC50 12.59 µM (falling, partial curve)

For reference, 2 entries once more:

structure,AC50 (µM),curve
CCN1CCN(c2cc(C)c3cc(NC(=O)c4ccc5c(c4)OCO5)ccc3n2)CC1,12.59,"falling, partial curve"
CN(C)c1ccc(C(=C2C=CC(=[N+](C)C)C=C2)c2ccccc2)cc1,3.162,"falling, partial curve"